Assay results from patent US20050095305A1, “Anti-aging agents” (priority 2001, published 2005).
For at least one compound, name, drawing or mass did not settle the structure.

Experiments:
[1] = Activity against free radicals, Method A (DPPH° test); format: biochemical; conditions: optical density at 513 nm
Method: (§1) The effectiveness of the test substances against free radicals was tested by various chemical and biochemical methods: • Method A A first test was carried out using diphenylpicrylhydrazyl (DPPH°) which is a relatively stable radical that forms a purple-colored solution. The optical density (DO) at 513 nm was determined. • Method B Hydroxyl radicals were released from hydrogen peroxide in the presence of iron(II) ions and EDTA and were used to oxidize deoxyribose. The oxidation product forms a pink-colored compound with thiobarbituric acid. Its concentration corresponds to the optical density at 532 nm. […] The superoxide anions dismute into hydrogen peroxide and oxygen either spontaneously or in the presence of Superoxid Dismutase. The quantity of superoxide anion can be determined by NBT reduction via the optical density at 490 nm. A test was conducted to determine whether fewer superoxide anions are generated or more anions are destroyed in the presence of the test substances. The results are set out in Table 1 and represent the EC50 values in % (w/v).

[2] = Activity against free radicals, Method D (xanthine oxidase, NBT reduction); format: biochemical; conditions: optical density at 490 nm
Method: as §1

Cc1cc(C(C)(C)C)c(O)c(C(C)(C)C)c1 [BHT, butylhydroxytoluene]
Effect against free radicals, Method A, EC50 [1]: 0.0500 % (w/v)
Effect against free radicals, Method D, EC50 [2]: No effect
